Measured values from patent US20210077461A1, “NEW USE” (Novartis AG, priority 2013, published 2021).

System: patients with chronic symptomatic heart failure and reduced ejection fraction (HF-REF)
Test: PARADIGM-HF randomized double-blind trial, LCZ696 versus enalapril: efficacy outcomes
Format: in vivo, human
Settings: double-blind period
Excerpt: Patients with chronic HF, NYHA functional class II-IV symptoms, an elevated plasma B-type natriuretic peptide (BNP) or NT-proBNP level and, initially, a left ventricular ejection fraction of ≤40% (later amended to ≤35%) are eligible. […] Secondary outcome measures are change in the Kansas City Cardiomyopathy Questionnaire (KCCQ) clinical summary score at 8 months, change in renal function, and time to all-cause mortality.
The trial was designed by the academic members of the Executive Committee (EC) in collaboration with Novartis personnel.
Entry criteria: 1) age 18 years or older and able to give written informed consent 2) New York Heart Association (NYHA) functional class II-IV, 3) left ventricular ejection fraction (LVEF) ≤35% (initially this was ≤40% but changed in a protocol amendment dated Dec. […]
At the screening visit, patient eligibility was assessed according to the inclusion/exclusion criteria. […] Eligibility BNP (and NT-proBNP), serum potassium and estimated glomerular filtration rate (eGFR) were measured in a central laboratory.

Compound | Study drug discontinued excluding death, percent of patients
CCOC(=O)[C@H](CCc1ccccc1)N[C@@H](C)C(=O)N1CCC[C@H]1C(=O)O [Enalapril, (2S)-1-[(2S)-2-{[(2S)-1-ethoxy-1-oxo-4-phenylbutan-2-yl]amino}propanoyl]-pyrrolidine-2-carboxylic acid, reference compound] | 19.8%
CCCCC(=O)N(Cc1ccc(-c2ccccc2-c2nn[n-]n2)cc1)C(C(=O)[O-])C(C)C.CCOC(=O)C(C)CC(Cc1ccc(-c2ccccc2)cc1)NC(=O)CCC(=O)[O-].[Na+].[Na+].[Na+] [LCZ696, trisodium [3-((1S,3R)-1-biphenyl-4-ylmethyl-3-ethoxycarbonyl-1-butylcarbamoyl)propionate-(S)-3′-methyl-2′-(pentanoyl{2″-(tetrazol-5-ylate)biphenyl-4′-ylmethyl}amino)butyrate] hemipentahydrate] | 17.8%
